Residue numbers refer to the chain shown, from its start. These are yes or no findings as the source states them, for the method shown. In cells and extracts the contact can be indirect. Some binding calls cover weakened binding; strength is not graded here. For some assays here: Where a sequence is shown, tags or fusion partners need not be part of it.
Legend:
[1] = biological target: T1, GFP-HOOK3 S238E (human) (UniProt Q86VS8); experiment: co-IP; HeLa extracts in Buffer H (sonicated, 15,000 x g); 2 hr at 4°C with A/G-agarose beads pre-linked with antibody; washed with coIP-washing buffer; Western blot; cells left non-treated, treated with 100 ng/mL nocodazole for 16 hr, or released from a thymidine block
T1 sequence: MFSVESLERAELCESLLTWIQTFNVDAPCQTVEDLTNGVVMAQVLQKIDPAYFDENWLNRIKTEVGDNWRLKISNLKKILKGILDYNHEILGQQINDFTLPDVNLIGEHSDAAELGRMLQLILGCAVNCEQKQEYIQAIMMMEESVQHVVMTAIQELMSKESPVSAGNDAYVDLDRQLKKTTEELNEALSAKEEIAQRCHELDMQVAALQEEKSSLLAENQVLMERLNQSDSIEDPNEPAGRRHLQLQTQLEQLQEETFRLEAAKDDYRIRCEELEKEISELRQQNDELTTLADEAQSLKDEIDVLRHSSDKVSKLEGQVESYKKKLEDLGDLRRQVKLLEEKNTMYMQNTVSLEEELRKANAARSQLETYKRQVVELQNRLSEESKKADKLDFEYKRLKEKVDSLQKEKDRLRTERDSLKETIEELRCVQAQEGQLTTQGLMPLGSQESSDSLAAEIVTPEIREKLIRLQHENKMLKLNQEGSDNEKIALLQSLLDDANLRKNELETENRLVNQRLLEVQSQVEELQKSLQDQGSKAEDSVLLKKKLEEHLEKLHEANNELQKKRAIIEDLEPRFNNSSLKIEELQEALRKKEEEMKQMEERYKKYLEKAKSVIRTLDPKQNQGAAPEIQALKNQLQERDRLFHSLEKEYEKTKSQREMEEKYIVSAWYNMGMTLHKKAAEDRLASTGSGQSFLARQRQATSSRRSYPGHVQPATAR

[2] = biological target: T2, HOOK3 (endogenous) (human (endogenous in HeLa)) (UniProt Q86VS8); experiment: as above
T2 sequence: T1 sequence with E238S

B1: AuroraA (endogenous) (enzyme, UniProt O14965 1-403)
chain: MDRSKENCISGPVKATAPVGGPKRVLVTQQFPCQNPLPVNSGQAQRVLCPSNSSQRIPLQAQKLVSSHKPVQNQKQKQLQATSVPHPVSRPLNNTQKSKQPLPSAPENNPEEELASKQKNEESKKRQWALEDFEIGRPLGKGKFGNVYLAREKQSKFILALKVLFKAQLEKAGVEHQLRREVEIQSHLRHPNILRLYGYFHDATRVYLILEYAPLGTVYRELQKLSKFDEQRTATYITELANALSYCHSKRVIHRDIKPENLLLGSAGELKIADFGWSVHAPSSRRTTLCGTLDYLPPEMIEGRMHDEKVDLWSLGVLCYEFLVGKPPFEANTYQETYKRISRVEFTFPDFVTEGARDLISRLLKHNPSQRPMLREVLEHPWITANSSKPSNCQNKESASKQS
With B1 the binding [1] was “binds” and the binding [2] was “binds”.
